{
  "source": "patent US20100278787A1",
  "about": "“CARDIOMYOCYTE-LIKE CELL CLUSTERS DERIVED FROM HBS CELLS” (Cellartis AB, priority 2007, published 2010)",
  "system": "CMLC clusters",
  "experiment": "Transmembrane action potential (TAP) microelectrode recordings in beating CMLC",
  "conditions": "E-4031, FIGS. 22 and 23",
  "note": "“Also recorded” adds a separate entry of the source.",
  "data": [
    {"smiles": "Cc1cccc(CCN2CCC(C(=O)c3ccc(NS(C)(=O)=O)cc3)CC2)n1", "note": "[E-4031]", "values": [
      {"measurement": "Proarrhythmic potential: effect of IKr block on APs", "value": "APD prolongation, triangulation, and EADs; also recorded: prolonged APD in all cases and clear signs of triangulation; also recorded: triangularization as an effect of the drug, triggered activity, and in some cases EADs were detected"}
    ]}
  ]
}
